These are yes or no findings as the source states them, for the method shown. Some results given as binding are weak or reduced against the parent protein; the word gives no strength.
Biological target: Full-length human low-density lipoprotein receptor-related protein 1 (LRP1) (human) (UniProt Q07954)
Experiment: SPR; LRP1-coated surface; coinjection experiment, tau with excess RAP; both purified

Protein sequences, listed by entry. Tags and fused reporters are not part of them. Residues count along the entry.
UniProt Q07954, residues 20-4544: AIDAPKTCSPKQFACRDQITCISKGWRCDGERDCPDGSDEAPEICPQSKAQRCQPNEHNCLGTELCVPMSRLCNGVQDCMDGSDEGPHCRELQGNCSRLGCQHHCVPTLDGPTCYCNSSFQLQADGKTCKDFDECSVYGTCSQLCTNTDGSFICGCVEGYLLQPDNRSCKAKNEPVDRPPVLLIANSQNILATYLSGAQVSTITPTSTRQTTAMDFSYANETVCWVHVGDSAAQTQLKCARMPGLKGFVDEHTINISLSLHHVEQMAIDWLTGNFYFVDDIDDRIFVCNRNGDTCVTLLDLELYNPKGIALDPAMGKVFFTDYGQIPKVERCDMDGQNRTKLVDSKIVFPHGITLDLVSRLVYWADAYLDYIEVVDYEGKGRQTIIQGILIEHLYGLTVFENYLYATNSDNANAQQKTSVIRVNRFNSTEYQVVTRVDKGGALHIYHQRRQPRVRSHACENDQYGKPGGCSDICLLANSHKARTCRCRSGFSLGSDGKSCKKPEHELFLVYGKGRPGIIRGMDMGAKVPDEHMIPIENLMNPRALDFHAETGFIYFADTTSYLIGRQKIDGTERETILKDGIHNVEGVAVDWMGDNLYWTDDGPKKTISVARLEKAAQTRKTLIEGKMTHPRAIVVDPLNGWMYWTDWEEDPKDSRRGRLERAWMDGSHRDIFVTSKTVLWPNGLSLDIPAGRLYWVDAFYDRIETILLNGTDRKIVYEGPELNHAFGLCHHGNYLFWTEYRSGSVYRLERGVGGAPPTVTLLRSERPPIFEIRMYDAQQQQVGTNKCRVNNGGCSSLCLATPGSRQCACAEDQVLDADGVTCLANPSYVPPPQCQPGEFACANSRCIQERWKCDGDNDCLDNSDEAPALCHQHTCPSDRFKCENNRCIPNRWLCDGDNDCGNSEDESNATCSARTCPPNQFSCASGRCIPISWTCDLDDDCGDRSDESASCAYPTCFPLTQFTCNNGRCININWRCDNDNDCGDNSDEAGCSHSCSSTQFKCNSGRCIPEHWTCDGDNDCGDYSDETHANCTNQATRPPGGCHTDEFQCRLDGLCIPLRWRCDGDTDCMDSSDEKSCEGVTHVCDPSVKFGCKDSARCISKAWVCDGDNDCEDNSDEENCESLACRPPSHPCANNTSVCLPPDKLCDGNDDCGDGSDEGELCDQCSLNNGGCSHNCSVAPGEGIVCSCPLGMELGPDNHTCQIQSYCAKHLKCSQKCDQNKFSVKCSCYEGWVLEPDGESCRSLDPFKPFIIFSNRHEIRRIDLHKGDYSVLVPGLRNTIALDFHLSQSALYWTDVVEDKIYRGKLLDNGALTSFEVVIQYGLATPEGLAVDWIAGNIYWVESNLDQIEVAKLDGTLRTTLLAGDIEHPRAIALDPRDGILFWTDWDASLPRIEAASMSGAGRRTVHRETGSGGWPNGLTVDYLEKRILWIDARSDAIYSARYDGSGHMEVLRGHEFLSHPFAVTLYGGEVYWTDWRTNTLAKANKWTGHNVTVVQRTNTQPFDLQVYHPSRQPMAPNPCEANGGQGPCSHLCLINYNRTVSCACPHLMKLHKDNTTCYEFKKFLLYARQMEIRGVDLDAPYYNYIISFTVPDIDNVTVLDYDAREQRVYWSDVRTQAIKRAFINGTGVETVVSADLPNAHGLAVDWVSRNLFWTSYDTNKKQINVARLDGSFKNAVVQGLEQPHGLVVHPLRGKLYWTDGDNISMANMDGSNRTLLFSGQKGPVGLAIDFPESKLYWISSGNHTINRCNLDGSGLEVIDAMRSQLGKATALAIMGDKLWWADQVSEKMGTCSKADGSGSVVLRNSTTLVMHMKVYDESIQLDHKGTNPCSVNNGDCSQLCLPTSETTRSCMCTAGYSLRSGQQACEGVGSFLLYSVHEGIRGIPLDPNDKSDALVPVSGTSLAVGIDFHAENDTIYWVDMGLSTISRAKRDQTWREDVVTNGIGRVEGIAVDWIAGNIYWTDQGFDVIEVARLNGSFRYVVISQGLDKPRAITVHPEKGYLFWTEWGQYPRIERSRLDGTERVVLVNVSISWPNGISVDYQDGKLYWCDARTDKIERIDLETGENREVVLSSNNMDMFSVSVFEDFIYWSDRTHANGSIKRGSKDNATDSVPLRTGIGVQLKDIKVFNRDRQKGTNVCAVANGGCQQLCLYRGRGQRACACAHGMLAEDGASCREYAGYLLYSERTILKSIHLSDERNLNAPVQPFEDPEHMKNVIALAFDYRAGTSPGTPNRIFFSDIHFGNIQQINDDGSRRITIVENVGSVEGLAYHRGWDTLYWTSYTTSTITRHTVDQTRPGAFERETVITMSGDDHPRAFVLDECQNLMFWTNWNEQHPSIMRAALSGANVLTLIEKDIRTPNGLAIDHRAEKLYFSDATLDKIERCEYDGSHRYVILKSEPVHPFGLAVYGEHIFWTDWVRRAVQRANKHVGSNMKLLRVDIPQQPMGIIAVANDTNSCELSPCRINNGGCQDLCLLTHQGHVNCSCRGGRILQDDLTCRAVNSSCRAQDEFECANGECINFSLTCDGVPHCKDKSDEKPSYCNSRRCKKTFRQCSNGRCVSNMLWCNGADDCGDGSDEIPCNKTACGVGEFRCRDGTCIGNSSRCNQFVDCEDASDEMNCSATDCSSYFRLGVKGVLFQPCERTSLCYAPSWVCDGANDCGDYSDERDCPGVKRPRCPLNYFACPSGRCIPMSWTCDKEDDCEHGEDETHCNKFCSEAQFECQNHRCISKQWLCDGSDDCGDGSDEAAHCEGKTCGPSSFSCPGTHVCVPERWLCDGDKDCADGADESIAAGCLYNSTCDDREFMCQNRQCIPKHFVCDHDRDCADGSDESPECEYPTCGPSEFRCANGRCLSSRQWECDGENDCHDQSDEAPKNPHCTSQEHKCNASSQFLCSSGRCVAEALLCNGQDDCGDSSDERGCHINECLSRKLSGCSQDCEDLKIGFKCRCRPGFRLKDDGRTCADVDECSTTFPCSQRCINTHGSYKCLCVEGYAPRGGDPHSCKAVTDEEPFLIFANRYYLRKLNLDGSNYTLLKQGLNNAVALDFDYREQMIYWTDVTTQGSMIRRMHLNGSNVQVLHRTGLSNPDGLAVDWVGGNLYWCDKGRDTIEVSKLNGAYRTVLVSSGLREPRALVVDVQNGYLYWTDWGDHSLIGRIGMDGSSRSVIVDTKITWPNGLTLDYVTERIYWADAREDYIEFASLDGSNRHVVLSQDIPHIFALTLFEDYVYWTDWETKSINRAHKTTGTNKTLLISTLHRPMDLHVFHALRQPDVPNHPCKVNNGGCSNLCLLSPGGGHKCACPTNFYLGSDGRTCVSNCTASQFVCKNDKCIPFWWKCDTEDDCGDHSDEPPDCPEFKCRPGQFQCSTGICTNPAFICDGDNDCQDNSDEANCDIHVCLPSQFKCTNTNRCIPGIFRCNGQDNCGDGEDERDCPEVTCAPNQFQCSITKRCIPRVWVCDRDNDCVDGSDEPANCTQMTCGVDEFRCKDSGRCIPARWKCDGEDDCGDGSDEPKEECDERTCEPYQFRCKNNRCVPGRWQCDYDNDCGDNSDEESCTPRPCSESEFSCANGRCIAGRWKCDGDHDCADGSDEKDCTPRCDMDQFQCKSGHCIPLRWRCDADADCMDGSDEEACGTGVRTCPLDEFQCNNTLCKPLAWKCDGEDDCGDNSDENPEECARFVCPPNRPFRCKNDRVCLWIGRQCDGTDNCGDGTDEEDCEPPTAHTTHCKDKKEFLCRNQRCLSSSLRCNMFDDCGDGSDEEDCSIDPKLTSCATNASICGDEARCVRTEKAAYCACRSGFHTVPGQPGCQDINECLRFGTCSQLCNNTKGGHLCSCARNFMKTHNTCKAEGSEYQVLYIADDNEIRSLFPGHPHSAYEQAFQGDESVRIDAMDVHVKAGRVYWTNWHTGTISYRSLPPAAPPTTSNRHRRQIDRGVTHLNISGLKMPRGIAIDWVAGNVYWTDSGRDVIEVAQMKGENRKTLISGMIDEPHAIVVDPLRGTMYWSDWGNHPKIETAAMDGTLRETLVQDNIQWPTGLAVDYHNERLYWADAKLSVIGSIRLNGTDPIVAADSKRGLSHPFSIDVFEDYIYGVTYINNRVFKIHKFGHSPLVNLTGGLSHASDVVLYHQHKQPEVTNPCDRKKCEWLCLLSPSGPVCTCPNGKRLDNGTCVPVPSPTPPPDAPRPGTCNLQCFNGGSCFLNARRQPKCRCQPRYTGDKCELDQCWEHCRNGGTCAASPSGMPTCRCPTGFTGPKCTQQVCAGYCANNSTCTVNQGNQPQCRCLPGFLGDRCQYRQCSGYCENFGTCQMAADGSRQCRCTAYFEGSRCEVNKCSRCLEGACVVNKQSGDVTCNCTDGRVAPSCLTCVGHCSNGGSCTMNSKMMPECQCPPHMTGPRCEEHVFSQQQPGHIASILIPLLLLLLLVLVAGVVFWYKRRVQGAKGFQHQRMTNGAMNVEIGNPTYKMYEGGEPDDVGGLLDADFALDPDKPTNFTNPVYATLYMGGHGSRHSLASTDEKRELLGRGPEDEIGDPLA
UniProt P30533, residues 35-357: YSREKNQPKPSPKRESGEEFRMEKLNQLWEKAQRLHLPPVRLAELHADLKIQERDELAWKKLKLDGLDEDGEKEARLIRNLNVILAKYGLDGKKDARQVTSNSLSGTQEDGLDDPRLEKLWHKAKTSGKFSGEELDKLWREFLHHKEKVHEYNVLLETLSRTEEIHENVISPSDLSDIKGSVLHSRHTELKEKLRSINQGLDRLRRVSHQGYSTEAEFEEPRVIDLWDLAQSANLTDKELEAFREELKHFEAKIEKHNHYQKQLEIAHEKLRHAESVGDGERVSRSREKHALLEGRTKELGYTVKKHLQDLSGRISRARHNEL

binding: binds
Substance: receptor-associated protein (RAP) (from UniProt P30533 35-357)

Reference: PMC8164048
